Data published in the supplement of paper PMC10849652.
Some of the results follow.

Protein sequences, listed by entry. Tags and fused reporters are not part of them. Lines headed by an entry give the natural chain unless they say otherwise; changes in a name come on top.
UniProt Q96BP3: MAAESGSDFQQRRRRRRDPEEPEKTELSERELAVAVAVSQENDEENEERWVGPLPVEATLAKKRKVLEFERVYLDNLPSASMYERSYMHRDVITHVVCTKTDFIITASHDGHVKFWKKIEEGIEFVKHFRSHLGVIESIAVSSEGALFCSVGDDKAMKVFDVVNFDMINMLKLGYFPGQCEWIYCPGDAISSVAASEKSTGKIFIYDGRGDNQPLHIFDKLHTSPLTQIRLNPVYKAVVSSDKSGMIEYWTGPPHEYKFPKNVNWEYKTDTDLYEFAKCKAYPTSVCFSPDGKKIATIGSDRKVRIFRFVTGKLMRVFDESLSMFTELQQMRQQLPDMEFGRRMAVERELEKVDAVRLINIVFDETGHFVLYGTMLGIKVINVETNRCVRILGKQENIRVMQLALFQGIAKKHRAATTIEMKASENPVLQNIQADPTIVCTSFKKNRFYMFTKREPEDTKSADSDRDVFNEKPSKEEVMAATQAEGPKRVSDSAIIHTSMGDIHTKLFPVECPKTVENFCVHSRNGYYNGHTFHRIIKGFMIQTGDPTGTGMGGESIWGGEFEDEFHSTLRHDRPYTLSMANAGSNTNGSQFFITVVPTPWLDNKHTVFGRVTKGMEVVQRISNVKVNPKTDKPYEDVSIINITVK
UniProt P13861, whole entry, looked up: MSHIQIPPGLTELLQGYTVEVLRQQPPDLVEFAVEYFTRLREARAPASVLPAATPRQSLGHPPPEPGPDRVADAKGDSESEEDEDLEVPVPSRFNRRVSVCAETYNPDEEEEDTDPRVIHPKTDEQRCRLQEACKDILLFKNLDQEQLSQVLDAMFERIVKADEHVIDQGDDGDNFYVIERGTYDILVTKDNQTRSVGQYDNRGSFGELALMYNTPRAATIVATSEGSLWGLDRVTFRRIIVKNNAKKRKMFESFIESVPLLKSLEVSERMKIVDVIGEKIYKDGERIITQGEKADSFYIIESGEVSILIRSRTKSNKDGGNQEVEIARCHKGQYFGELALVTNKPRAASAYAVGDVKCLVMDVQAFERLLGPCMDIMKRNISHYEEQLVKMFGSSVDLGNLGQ
UniProt O43447: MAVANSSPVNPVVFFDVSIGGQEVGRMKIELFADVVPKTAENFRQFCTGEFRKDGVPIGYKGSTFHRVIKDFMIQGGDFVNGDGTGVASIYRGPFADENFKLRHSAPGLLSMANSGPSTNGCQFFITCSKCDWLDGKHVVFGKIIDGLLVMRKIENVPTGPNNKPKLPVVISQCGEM
UniProt Q86XN7: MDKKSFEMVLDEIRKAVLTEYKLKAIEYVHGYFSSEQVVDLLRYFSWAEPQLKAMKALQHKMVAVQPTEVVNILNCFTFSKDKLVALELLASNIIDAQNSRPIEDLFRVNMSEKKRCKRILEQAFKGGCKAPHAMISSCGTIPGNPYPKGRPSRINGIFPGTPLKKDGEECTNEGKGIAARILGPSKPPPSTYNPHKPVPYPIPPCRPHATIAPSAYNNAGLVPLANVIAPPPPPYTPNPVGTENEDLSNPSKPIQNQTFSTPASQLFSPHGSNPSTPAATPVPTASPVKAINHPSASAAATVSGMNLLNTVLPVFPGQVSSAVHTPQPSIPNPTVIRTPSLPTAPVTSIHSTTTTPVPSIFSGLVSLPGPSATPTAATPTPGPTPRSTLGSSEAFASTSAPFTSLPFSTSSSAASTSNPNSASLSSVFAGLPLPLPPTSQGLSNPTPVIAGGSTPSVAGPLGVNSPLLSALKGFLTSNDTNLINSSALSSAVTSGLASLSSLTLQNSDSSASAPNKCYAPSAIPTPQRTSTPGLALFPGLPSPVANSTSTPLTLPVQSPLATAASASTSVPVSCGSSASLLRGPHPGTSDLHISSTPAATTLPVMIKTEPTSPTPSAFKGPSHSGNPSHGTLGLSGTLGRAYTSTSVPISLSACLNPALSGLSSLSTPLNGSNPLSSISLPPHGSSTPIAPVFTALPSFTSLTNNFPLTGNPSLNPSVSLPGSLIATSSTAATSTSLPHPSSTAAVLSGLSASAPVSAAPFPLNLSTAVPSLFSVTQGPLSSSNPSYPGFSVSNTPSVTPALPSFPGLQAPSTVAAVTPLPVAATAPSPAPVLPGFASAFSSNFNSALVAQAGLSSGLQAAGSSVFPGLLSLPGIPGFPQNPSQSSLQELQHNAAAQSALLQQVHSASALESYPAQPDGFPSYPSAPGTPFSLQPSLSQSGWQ
UniProt Q8WUA2: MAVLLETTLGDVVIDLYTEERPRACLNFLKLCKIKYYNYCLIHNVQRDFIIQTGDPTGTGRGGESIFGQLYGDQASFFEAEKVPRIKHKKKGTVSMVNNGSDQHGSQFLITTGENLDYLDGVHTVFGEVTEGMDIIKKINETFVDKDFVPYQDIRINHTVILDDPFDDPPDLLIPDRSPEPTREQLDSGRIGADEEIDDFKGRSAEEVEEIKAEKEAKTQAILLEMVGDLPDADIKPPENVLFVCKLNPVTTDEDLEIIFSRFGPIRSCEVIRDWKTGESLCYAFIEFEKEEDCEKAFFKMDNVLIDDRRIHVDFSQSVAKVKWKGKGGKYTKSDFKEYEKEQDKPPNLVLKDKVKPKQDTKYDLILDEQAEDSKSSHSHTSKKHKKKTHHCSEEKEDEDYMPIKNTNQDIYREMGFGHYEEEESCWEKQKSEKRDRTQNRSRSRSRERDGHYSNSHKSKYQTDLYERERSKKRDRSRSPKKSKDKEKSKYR
UniProt O94806: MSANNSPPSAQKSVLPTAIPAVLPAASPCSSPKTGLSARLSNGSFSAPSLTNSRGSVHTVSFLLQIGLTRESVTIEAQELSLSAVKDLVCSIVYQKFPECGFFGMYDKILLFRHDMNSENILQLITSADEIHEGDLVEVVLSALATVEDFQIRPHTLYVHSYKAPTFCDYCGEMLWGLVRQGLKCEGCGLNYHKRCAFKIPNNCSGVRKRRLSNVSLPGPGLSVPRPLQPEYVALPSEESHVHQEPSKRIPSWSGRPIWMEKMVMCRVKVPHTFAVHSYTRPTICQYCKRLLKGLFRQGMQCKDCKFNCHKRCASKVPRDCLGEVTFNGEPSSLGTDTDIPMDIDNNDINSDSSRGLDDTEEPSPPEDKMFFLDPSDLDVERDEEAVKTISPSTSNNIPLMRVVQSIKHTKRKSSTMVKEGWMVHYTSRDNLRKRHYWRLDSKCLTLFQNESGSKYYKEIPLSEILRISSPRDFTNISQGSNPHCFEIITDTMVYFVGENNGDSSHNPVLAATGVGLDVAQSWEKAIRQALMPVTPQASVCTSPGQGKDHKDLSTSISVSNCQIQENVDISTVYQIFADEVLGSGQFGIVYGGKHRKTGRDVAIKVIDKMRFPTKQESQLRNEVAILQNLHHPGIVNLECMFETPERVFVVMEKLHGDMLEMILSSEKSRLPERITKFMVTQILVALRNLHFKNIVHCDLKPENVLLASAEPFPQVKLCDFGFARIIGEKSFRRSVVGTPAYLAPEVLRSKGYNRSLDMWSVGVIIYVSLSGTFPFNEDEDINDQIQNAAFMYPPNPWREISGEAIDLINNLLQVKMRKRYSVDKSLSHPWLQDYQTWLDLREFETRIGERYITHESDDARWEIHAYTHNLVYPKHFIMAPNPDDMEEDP
UniProt Q9NY27: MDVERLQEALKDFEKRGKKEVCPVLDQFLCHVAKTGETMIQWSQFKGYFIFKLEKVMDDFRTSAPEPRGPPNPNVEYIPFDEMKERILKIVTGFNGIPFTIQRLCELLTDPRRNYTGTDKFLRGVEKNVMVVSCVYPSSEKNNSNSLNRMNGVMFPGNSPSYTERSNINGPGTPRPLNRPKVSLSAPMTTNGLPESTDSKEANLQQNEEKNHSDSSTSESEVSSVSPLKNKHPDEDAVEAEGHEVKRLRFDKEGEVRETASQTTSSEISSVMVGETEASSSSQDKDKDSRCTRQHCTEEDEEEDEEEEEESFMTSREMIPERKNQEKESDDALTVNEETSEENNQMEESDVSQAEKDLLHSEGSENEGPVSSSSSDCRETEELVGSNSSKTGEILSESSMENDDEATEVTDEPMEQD
UniProt Q96LA8, whole entry, looked up: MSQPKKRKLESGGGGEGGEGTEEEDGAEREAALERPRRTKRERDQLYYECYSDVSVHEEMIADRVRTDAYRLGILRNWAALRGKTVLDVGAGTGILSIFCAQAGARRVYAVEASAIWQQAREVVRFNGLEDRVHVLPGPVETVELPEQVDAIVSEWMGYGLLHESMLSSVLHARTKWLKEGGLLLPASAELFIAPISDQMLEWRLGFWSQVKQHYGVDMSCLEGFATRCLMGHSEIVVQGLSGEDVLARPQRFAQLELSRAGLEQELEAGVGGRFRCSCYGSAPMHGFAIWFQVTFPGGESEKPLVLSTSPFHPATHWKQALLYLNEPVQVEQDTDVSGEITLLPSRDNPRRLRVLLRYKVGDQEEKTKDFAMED
UniProt P49642: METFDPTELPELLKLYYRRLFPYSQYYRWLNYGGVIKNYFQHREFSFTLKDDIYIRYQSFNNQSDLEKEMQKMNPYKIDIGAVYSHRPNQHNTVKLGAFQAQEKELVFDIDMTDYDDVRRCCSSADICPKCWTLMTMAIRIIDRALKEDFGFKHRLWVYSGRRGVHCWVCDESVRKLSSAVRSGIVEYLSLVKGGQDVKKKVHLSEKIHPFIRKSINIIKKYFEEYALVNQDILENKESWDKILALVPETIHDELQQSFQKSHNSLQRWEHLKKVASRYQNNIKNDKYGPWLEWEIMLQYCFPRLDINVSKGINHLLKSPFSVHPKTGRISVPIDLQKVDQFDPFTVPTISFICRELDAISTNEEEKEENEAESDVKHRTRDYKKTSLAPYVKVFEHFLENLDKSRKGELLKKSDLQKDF
UniProt P62714, whole entry, looked up: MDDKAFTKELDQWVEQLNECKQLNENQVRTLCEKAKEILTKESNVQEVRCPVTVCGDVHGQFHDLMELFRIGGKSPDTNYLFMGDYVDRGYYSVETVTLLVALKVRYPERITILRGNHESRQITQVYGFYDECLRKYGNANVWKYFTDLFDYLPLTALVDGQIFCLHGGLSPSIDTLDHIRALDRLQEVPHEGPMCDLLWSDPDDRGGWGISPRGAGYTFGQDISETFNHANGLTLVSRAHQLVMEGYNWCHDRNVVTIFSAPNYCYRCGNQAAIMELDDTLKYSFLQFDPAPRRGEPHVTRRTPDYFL
UniProt O75170: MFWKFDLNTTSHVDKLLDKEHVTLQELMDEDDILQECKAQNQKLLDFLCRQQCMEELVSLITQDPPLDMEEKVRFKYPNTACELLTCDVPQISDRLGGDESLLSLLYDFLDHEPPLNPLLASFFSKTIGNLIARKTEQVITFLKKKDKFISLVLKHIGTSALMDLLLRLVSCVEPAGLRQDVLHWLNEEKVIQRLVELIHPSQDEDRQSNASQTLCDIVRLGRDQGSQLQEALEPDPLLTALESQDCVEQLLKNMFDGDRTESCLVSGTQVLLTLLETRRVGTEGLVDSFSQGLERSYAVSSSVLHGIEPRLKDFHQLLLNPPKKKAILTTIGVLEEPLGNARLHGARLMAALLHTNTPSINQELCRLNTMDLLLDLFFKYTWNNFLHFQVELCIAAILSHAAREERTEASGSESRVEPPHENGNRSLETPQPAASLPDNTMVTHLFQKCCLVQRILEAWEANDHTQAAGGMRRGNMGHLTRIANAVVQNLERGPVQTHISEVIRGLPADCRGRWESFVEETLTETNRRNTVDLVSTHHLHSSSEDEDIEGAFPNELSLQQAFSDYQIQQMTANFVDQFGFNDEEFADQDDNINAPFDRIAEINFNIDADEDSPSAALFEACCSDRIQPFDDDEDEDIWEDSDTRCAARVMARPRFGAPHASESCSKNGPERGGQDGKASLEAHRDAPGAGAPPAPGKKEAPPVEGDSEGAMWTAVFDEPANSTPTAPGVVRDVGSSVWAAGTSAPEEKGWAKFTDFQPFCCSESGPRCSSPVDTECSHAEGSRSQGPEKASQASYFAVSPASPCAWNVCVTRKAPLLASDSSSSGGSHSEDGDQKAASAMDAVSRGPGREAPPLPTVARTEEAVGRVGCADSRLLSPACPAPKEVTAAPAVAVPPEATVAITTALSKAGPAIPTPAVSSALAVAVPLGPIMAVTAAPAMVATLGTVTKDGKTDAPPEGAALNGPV
UniProt Q66LE6: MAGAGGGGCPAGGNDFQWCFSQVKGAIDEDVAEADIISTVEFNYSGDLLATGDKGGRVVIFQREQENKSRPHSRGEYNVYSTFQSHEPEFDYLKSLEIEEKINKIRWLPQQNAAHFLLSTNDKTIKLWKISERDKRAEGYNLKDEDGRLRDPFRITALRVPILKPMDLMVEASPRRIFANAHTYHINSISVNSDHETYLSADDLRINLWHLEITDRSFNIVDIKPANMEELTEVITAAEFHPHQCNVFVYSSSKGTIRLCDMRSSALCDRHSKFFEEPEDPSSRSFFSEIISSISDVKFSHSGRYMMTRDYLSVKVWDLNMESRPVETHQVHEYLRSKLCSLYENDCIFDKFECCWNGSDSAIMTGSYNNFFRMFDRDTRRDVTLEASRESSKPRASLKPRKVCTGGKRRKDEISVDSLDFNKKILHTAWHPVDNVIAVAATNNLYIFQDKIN

What was measured:
Test in all cases: log2 fold change, soluble protein after heating vs DMSO (PISA); higher = thermal stabilisation; K562 lysate, 10 uM; active = over 0.2 and 3.5 SD of the protein, either way, in both replicates (recomputed)
erlotinib = compound: C#Cc1cccc(Nc2ncnc3cc(OCCOC)c(OCCOC)cc23)c1 [erlotinib]
Method in brief: (§1)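 Pellets of K562 cells were dounce-homogenised in PBS pH 7.4 with 1 mM MgCl2, and the crude extract was held at 1 mg/mL protein for a 30 min treatment with 10 μM compound. Aliquots were heated for 3 min over 48°C-58°C and pooled before NP-40 was added to 0.5% at 4°C. The supernatant from 21,000xg for 90 min was quantified by TMTpro 16plex LC-MS/MS with channel sums equalised. Values are reported from duplicates as log-two fold change in thermal stability relative to solvent controls.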

[1] = compound: C/C(=N\NC(=O)C1=CC(=CC=C1)S(=O)(=O)N2CCOCC2)/C3=C(C=CC(=C3)Cl)O
Method in brief: as §1

[2] = compound: C1=CC(=CC=C1C2=NC3=C(N2)C=C(C=C3)C(=O)N)OC4=CC=C(C=C4)Cl
Method in brief: as §1

[3] = compound: C1=CC2=C(C=CC(=C2)/C=C\3/C(=O)NC(=NCC4=CC=CS4)S3)N=C1
Method in brief: as §1

[4] = compound: C1=CC2=NC=CN=C2C=C1/C=C/3\C(=O)NC(=O)S3
Method in brief: as §1

[5] = compound: C1=CC=C(C=C1)C2=NC(=C(N2)C3=CC=NC=C3)C4=CC(=C(C=C4)Cl)O
Method in brief: as §1

[6] = compound: C1=CC=C2C(=C1)C3=NNC4=CC=CC(=C43)C2=O
Method in brief: as §1

[7] = compound: C1CCN(C1)C(=O)NC2=CC=CC(=C2)NC3=NC=C(C(=N3)NCCC4=CN=CN4)Br
Method in brief: as §1

[8] = compound: C1CN(CCC1(CC2=CC=C(C=C2)Cl)N)C3=NC=NC4=C3C=CN4
Method in brief: as §1

IRAK-1-4 Inhibitor I = compound: C1COCCN1CCN2C3=CC=CC=C3N=C2NC(=O)C4=CC(=CC=C4)[N+](=O)[O-] [IRAK-1-4 Inhibitor I]
Method in brief: as §1

ibrutinib = compound: C=CC(=O)N1CCC[C@@H](n2nc(-c3ccc(Oc4ccccc4)cc3)c3c(N)ncnc32)C1 [ibrutinib]
Method in brief: as §1

[9] = compound: CC(=O)c1cnc2ccc(-c3cc(Cl)c(O)c(Cl)c3)nc2c1N[C@H]1CC[C@H](CN(C)C)CC1
Method in brief: as §1

ralimetinib = compound: CC(C)(C)Cn1c(N)nc2ccc(-c3[nH]c(C(C)(C)C)nc3-c3ccc(F)cc3)nc21 [ralimetinib]
Method in brief: as §1

[10] = compound: CC(C)(O)CC(=O)NCCn1ccc2ncnc(Nc3ccc(Oc4cccc(C(F)(F)F)c4)c(Cl)c3)c21
Method in brief: as §1

[11] = compound: CC(C)C1=C2N=C(C=C(N2N=C1)NCC3=CC=CC=C3)NCCCCCCN
Method in brief: as §1

[12] = compound: CC1=C(C(CC(=O)N1)C2=CC=C(C=C2)C(F)(F)F)C(=O)NC3=C(C=C4C(=C3)C=NN4)F
Method in brief: as §1

[13] = compound: CC1=C(C2=C(C=C1)C(=O)C3=CC=CC=C3N2CCCN)C
Method in brief: as §1

[14] = compound: CC1=C(C=C(C=C1)NC(=O)C2=CC(=CC=C2)C(C)(C)C#N)NC3=CC4=C(C=C3)N=CN(C4=O)C
Method in brief: as §1

[15] = compound: CC1=C(C=C(C=C1)NC(=O)C2=CC(=CC=C2)N(C)C)NC(=O)C3=CC=C(C=C3)O
Method in brief: as §1

[16] = compound: CC1=CC=C(C=C1)SC2=C3C=C(SC3=CN=C2)C(=O)N
Method in brief: as §1

Row | Target | log2 fold change (erlotinib) | log2 fold change [1] | log2 fold change [2] | log2 fold change [3] | log2 fold change [4] | log2 fold change [5] | log2 fold change [6] | log2 fold change [7] | log2 fold change [8] | log2 fold change (IRAK-1-4 Inhibitor I) | log2 fold change (ibrutinib) | log2 fold change [9] | log2 fold change (ralimetinib) | log2 fold change [10] | log2 fold change [11] | log2 fold change [12] | log2 fold change [13] | log2 fold change [14] | log2 fold change [15] | log2 fold change [16]
1 | PPWD1 (UniProt Q96BP3) | inactive: -0.015 | inactive: -0.004 | inactive: 0.013 | inactive: 0.013 | inactive: -0.019 | inactive: -0.001 | inactive: -0.021 | inactive: -0.009 | inactive: -0.016 | inactive: -0.021 | inactive: 0.049 | inactive: -0.026 | inactive: 0.031 | inactive: -0.013 | inactive: 0.003 | inactive: 0.006 | inactive: 0.015 | inactive: -0.012 | inactive: 0.022 | inactive: 0.003
2 | PRKAR2A (UniProt P13861) | inactive: 0.001 | inactive: 0.032 | inactive: 0.02 | inactive: -0.02 | inactive: -0.009 | inactive: 0 | inactive: -0.029 | active: -0.252 | inactive: -0.212 | inactive: -0.06 | inactive: 0.044 | inactive: -0.064 | inactive: 0.033 | inactive: -0.032 | inactive: 0.018 | inactive: 0.015 | inactive: 0.005 | inactive: 0 | inactive: 0.011 | inactive: 0.036
3 | PPIH (UniProt O43447) | inactive: -0.02 | inactive: -0.1 | inactive: 0.01 | inactive: -0.008 | inactive: -0.028 | inactive: 0 | inactive: 0.003 | inactive: 0.004 | inactive: 0.008 | inactive: -0.011 | inactive: 0.012 | inactive: -0.009 | inactive: -0.002 | inactive: -0.029 | inactive: -0.02 | inactive: -0.015 | inactive: 0.04 | inactive: 0.002 | inactive: 0.026 | inactive: 0.004
4 | PPM1E (UniProt Q8WY54) | inactive: -0.023 | inactive: -0.051 | inactive: -0.081 | inactive: 0.018 | inactive: -0.071 | inactive: -0.018 | inactive: 0.034 | inactive: 0.023 | inactive: 0.002 | inactive: 0.037 | inactive: -0.038 | inactive: 0.072 | inactive: 0.041 | inactive: -0.02 | inactive: -0.011 | inactive: 0.007 | inactive: -0.009 | inactive: -0.038 | inactive: -0.002 | inactive: 0.037
5 | PROSER1 (UniProt Q86XN7) | inactive: 0.162 | inactive: -0.445 | inactive: 0.308 | inactive: -0.065 | inactive: 0.053 | inactive: 0.03 | inactive: -0.06 | – | – | inactive: 0.016 | inactive: 0.009 | inactive: 0.1 | inactive: 0.181 | inactive: -0.072 | inactive: -0.05 | inactive: 0.137 | inactive: -0.04 | – | inactive: -0.044 | inactive: 0.005
6 | PPIL4 (UniProt Q8WUA2) | inactive: -0.014 | inactive: -0.015 | inactive: 0.008 | inactive: -0.018 | inactive: -0.012 | inactive: 0.018 | inactive: 0.024 | inactive: -0.023 | inactive: 0.03 | inactive: -0.028 | inactive: 0.012 | inactive: 0.002 | inactive: -0.013 | inactive: -0.007 | inactive: -0.002 | inactive: -0.02 | inactive: -0.041 | inactive: 0.01 | inactive: 0.004 | inactive: 0
7 | PRKD3 (UniProt O94806) | inactive: -0.041 | inactive: 0.105 | inactive: -0.123 | inactive: -0.145 | inactive: 0.039 | inactive: 0.115 | inactive: 0.123 | inactive: -0.163 | inactive: -0.115 | inactive: 0.053 | inactive: -0.112 | inactive: 0.054 | inactive: -0.164 | inactive: -0.052 | inactive: 0.03 | inactive: 0.039 | – | inactive: -0.068 | inactive: -0.022 | inactive: -0.077
8 | PPP4R2 (UniProt Q9NY27) | inactive: 0.004 | inactive: -0.007 | inactive: 0.025 | inactive: 0.063 | inactive: -0.029 | inactive: -0.02 | inactive: 0.013 | inactive: 0.004 | inactive: 0.004 | inactive: 0.012 | inactive: -0.012 | inactive: -0.007 | inactive: -0.015 | inactive: -0.058 | inactive: 0.003 | inactive: 0 | inactive: 0 | inactive: -0.007 | inactive: 0.003 | inactive: -0.019
9 | PRMT6 (UniProt Q96LA8) | inactive: 0.009 | inactive: 0.008 | inactive: 0.006 | inactive: 0.008 | inactive: -0.027 | inactive: 0.025 | inactive: -0.022 | inactive: -0.008 | inactive: -0.01 | inactive: -0.065 | inactive: -0.063 | inactive: 0.059 | inactive: -0.005 | inactive: -0.003 | inactive: -0.035 | inactive: 0.007 | inactive: 0.016 | inactive: -0.027 | inactive: 0.043 | inactive: 0
10 | PRIM1 (UniProt P49642) | inactive: -0.004 | inactive: 0.061 | inactive: -0.011 | inactive: -0.01 | inactive: -0.03 | inactive: 0.02 | inactive: 0 | inactive: -0.006 | inactive: 0.002 | inactive: 0.003 | inactive: -0.016 | inactive: 0.014 | inactive: 0.056 | inactive: 0.056 | inactive: 0.016 | inactive: 0.027 | inactive: -0.019 | inactive: 0.015 | inactive: 0.011 | inactive: 0.02
11 | PPP2CB (UniProt P62714) | inactive: -0.019 | inactive: 0.011 | inactive: 0.021 | inactive: 0.02 | inactive: -0.008 | inactive: -0.004 | inactive: 0.008 | inactive: 0.005 | inactive: 0.004 | inactive: 0.007 | inactive: 0.01 | inactive: -0.014 | inactive: -0.009 | inactive: -0.015 | inactive: -0.008 | inactive: 0.007 | inactive: -0.024 | inactive: 0.006 | inactive: 0.016 | inactive: 0
12 | PPP6R2 isoform 5 (UniProt O75170) | inactive: 0.025 | inactive: -0.011 | inactive: -0.061 | inactive: -0.021 | inactive: 0.006 | inactive: -0.017 | inactive: 0.024 | inactive: -0.027 | inactive: 0.059 | inactive: -0.005 | inactive: 0.028 | inactive: 0.026 | inactive: 0.07 | inactive: -0.027 | inactive: -0.022 | inactive: 0.019 | inactive: 0.032 | inactive: 0.017 | inactive: 0.007 | inactive: 0.013
13 | PPP2R2D (UniProt Q66LE6) | inactive: 0.019 | inactive: -0.043 | inactive: 0.053 | inactive: 0.059 | inactive: -0.042 | inactive: -0.09 | inactive: -0.159 | – | – | inactive: 0 | inactive: -0.115 | inactive: 0.084 | inactive: 0.044 | inactive: 0.021 | inactive: -0.008 | inactive: -0.089 | inactive: 0.033 | inactive: 0.021 | inactive: -0.002 | inactive: -0.077
14 | PPP1R12B isoform 6 (UniProt O60237) | inactive: -0.081 | inactive: 0.025 | inactive: -0.103 | inactive: -0.08 | inactive: 0.057 | inactive: -0.053 | inactive: -0.07 | inactive: -0.123 | inactive: 0.037 | inactive: 0.153 | inactive: 0.019 | inactive: -0.112 | inactive: 0.01 | inactive: -0.251 | inactive: 0.095 | – | inactive: 0.106 | inactive: 0.142 | inactive: -0.012 | inactive: -0.194
15 | PRG4 (UniProt Q92954) | – | – | – | – | inactive: -0.296 | inactive: -0.027 | – | – | – | inactive: 0.057 | inactive: 0.267 | inactive: -0.002 | inactive: 0.037 | inactive: -0.109 | – | inactive: -0.091 | inactive: -0.029 | inactive: -0.027 | inactive: 0.035 | inactive: 0.034

2 records drawn at random from the list so far:
Row | Target | log2 fold change (erlotinib) | log2 fold change [1] | log2 fold change [2] | log2 fold change [3] | log2 fold change [4] | log2 fold change [5] | log2 fold change [6] | log2 fold change [7] | log2 fold change [8] | log2 fold change (IRAK-1-4 Inhibitor I) | log2 fold change (ibrutinib) | log2 fold change [9] | log2 fold change (ralimetinib) | log2 fold change [10] | log2 fold change [11] | log2 fold change [12] | log2 fold change [13] | log2 fold change [14] | log2 fold change [15] | log2 fold change [16]
2 | PRKAR2A (UniProt P13861) | inactive: 0.001 | inactive: 0.032 | inactive: 0.02 | inactive: -0.02 | inactive: -0.009 | inactive: 0 | inactive: -0.029 | active: -0.252 | inactive: -0.212 | inactive: -0.06 | inactive: 0.044 | inactive: -0.064 | inactive: 0.033 | inactive: -0.032 | inactive: 0.018 | inactive: 0.015 | inactive: 0.005 | inactive: 0 | inactive: 0.011 | inactive: 0.036
12 | PPP6R2 isoform 5 (UniProt O75170) | inactive: 0.025 | inactive: -0.011 | inactive: -0.061 | inactive: -0.021 | inactive: 0.006 | inactive: -0.017 | inactive: 0.024 | inactive: -0.027 | inactive: 0.059 | inactive: -0.005 | inactive: 0.028 | inactive: 0.026 | inactive: 0.07 | inactive: -0.027 | inactive: -0.022 | inactive: 0.019 | inactive: 0.032 | inactive: 0.017 | inactive: 0.007 | inactive: 0.013
